# Results from ChEMBL document CHEMBL4296182, “CO-ADD screening of NIH NCI Diversity Set V”.
# The other results are listed elsewhere or left out. Results with a measured potency or affinity are listed apart.
# Tested on: Pseudomonas aeruginosa
# Conditions: Concentration 20 uM; ASSAY_TEST Inhibition of Bacterial Growth; detection method Absorption (OD600); MEDIA CAMHB; plate type 384well; NBS; CORNING #3640; time 18 hr
row,SMILES,Inhibition [%]
1,Cn1c(=O)c2c(nc(Cc3ccc(N)cc3)n2C)n(C)c1=O,10.27
2,O=c1nc(Nc2cccc(Cl)c2)oc2cc(Cl)oc(=O)c12,11.19
3,CC1CN(CCN2CC(C)N(C=O)CC2C)C(C)CN1C=O (configuration not stated),-7.9
4,NS(=O)(=O)c1ccc(/N=N/c2c(O)c(C(=O)O)cc3ccccc23)cc1,6.38
5,O=C(O)c1ccccc1-c1ccccc1C(=O)Nc1ccc2oc(=O)c3ccccc3c2c1,-13.38
6,CCCN=C(S)Nc1ccccc1,-18.98
7,CCOc1ccc(S(=O)(=O)c2ccc(C)cc2)c2c1no[n+]2[O-],32.04
8,c1ccc2c(c1)cnc1ccccc12 [PHENANTHRIDINE],-3.52
9,Cc1cccc(C(O)C(O)c2cccc(C)n2)n1 (configuration not stated),11.58
10,O=S(=O)(O)c1ccc(/N=N/c2ccccc2)cc1,2.86
11,CCCNC(=O)c1ccccc1C(=O)NC1(C(=O)NCCC)CCCC1,17.28
12,O=C(/C=C/c1ccc(Cl)s1)c1ccc(Cl)s1,3.32
13,CCc1noc2cc(-c3ccccc3)n(C)c(=O)c12,-4.85
14,N=C(N)NC(=S)Nc1ccc(Cl)cc1,1.42
15,CCN(CC)CCN1c2ccccc2Sc2ccc3ccccc3c21,29.3
16,Cc1cccc(N2CCN(CC(O)COc3ccc(Cl)cc3)CC2)c1 (configuration not stated),20.92
17,c1ccc(-c2nnc3nc(N4CCCCC4)nc(N4CCCCC4)n23)cc1,20.3
18,CCCCOC(=O)c1cccnc1,17.52
19,COC(=O)[C@H]1[C@H]2C[C@@H]3c4[nH]c5cc(OC)ccc5c4CCN3C[C@H]2C[C@@H](OC(=O)CC(C)=O)[C@@H]1OC,18.08
20,CCOC(=O)N1CCc2cc(OC)c(OC)c3c2c1cc1cc(OC)c(OC)cc13,22.81
21,C=CCSC(CC)(CC)C(N)=O,-6.33
22,O=C1CSC(=S)N1/N=C/c1c[nH]c2ccc(Br)cc12,7.67
23,CCCCCOc1ccc(N2C(=O)C(C)CNC2=S)cc1 (configuration not stated),22.16

# 2 entries picked at random from the list so far, as already listed:
row,SMILES,Inhibition [%]
17,c1ccc(-c2nnc3nc(N4CCCCC4)nc(N4CCCCC4)n23)cc1,20.3
18,CCCCOC(=O)c1cccnc1,17.52

# Next entries:

row,SMILES,Inhibition [%]
1,Cc1cc2nc3ccc(N(C)C)cc3[s+]c2cc1N.[Cl-] [TOLONIUM CHLORIDE],11.43
2,CCSc1nc(O)cc(O)n1,20.7
3,NC(=O)C1=C(N)c2ccccc2C1c1ccccc1 (configuration not stated),-32.43
4,Nc1nc(SCc2ccccn2)c2ncn(C3OC(CO)C(O)C3O)c2n1 (configuration not stated),30.09
5,O=C(O)c1cc(Cl)nnc1O,20.17
6,CCOC(=O)Cn1nc2oc(=O)c(CCN3CCN(c4ccccc4OC)CC3)c(C)c2c1C,19.88
7,NS(=O)(=O)c1ccc(Nc2ccccc2)c([N+](=O)[O-])c1,-9.27
8,Cc1nc(O)c(Cc2ccccc2O)c(-c2ccccc2)n1,12.19
9,Oc1ccc(/N=N/c2nccs2)c(O)c1,-6.73
10,Sc1ncc2cnccn12,17.31
11,COC(=O)C1(C(=O)OC)C2C(=O)C3C(C21)C3(C(=O)OC(C)(C)C)C(=O)OC(C)(C)C (configuration not stated),11.1
12,O=C1/C(=N\c2cccc(Cl)c2)CC(c2ccc(Cl)cc2)N1c1cccc(Cl)c1 (configuration not stated),20
13,CCN(CC)CCNc1c(C)nc(C#N)c(N)[n+]1[O-],11.42
14,N#CNC(=N)c1ccccc1,-11.62
15,OCC(O)C1OCOC(C(O)CO)C1O (configuration not stated),5.9
16,COc1ccc2c(c1)CCCN2C(=N)Nc1ccc(Cl)cc1,-10.18
17,Nc1ccc(/N=N/c2ccccc2)c2ccccc12,17.01
18,COc1cc2c(c(OC)c1O)C(=O)CO2,-6.35
19,O=C(Nc1nc2ccccc2s1)Nc1ccc([N+](=O)[O-])cc1Cl,-4.27
20,Cc1ccc(C#CC(C)(O)C(C)(C)C)cn1 (configuration not stated),6.13
21,CCOC(=O)Cc1cc(=O)[nH]n(-c2ccccc2)c1=O,7.36
22,COc1cccc(OCC(O)CN2CCN(c3ccccc3)CC2)c1 (configuration not stated),9.38
23,Cc1cc(NC(=O)NC(=O)c2ccccc2NC(=O)C(C)N)ccc1Oc1ncc(Br)cn1.Cl (configuration not stated),16.64

# Not a retest: an excerpt of the list.
row,SMILES,Inhibition [%]
1,Cc1cc2nc3ccc(N(C)C)cc3[s+]c2cc1N.[Cl-] [TOLONIUM CHLORIDE],11.43
2,CCSc1nc(O)cc(O)n1,20.7
3,NC(=O)C1=C(N)c2ccccc2C1c1ccccc1 (configuration not stated),-32.43
4,Nc1nc(SCc2ccccn2)c2ncn(C3OC(CO)C(O)C3O)c2n1 (configuration not stated),30.09

# (next part)

row,SMILES,Inhibition [%]
1,Cc1ccc([N+](=O)[O-])cc1NC(=O)Nc1ccc(S(N)(=O)=O)cc1,10.86
2,Cc1n[nH]c2c([N+](=O)[O-])c(=O)[nH]c(=O)n12,13.09
3,Cc1ccc(-c2nc(-c3nccc4ccccc34)oc2-c2ccccc2)cc1,20.54
4,O=[N+]([O-])c1ccc(/C=C\c2ccncc2)cc1,-10.78
5,CCOC(=O)Cc1cnc(S)nc1O,11.95
6,c1ccc2[nH]c(-c3ccncc3)nc2c1,18.79
7,O=C(c1ccc(Cl)nc1)c1cccs1,-5.25
8,O=C(O)c1cnn2c(S)ncnc12,8.68
9,O=C(Nc1cccnc1)c1cccc([N+](=O)[O-])c1,8.42
10,O=C(O)/C=C\C(=O)Nc1ccc(-c2ccccc2)cc1,-8.8
11,N#CCc1cnc2ccccc2n1,5.42
12,COc1ccc(/N=C\c2c(O)ccc3c2oc2cc(Cl)c(O)c(Cl)c23)cc1,-16.44
13,Clc1ccc(-c2c(C3=NCCCN3)nnn2-c2ccc(Cl)cc2)cc1,21.75
14,O=C(NC1CCCCC1)c1cc2ccccc2cc1O,18.91
15,O=C(Oc1ccccc1)c1cccc2cccc(C(=O)Oc3ccccc3)c12,16.62
16,CN(C)c1ccc(/N=N\c2cccc3ccoc23)cc1,-10.86
17,CSc1cccc(NC(=O)Nc2nc3c(C)cccc3s2)c1,26.87
18,CCOC(=O)CSc1nc2nc(Cl)c(Cl)[nH]c-2n1,15.29
19,O=c1oc(-c2ccccc2)c(-c2ccccc2)c2ccccc12,7.75
20,c1ccc(-c2ccc3c(c2)NCCN3)cc1,4.99
21,CN(C)CCCn1c2c3ccccc3ccc2c2oc(=O)c3ccccc3c21.Cl,17.25
22,Cc1cc(O)c2c(C)ccc(C)c2n1,10.71
23,COc1ccc(CN2CCOC2=O)cc1OC,18.68

row,SMILES,Inhibition [%]
1,Cc1ccc(C(C)C)cc1NC(=O)Nc1ccc([N+](=O)[O-])cc1,4.36
2,Cc1cc(=O)oc2cc(OS(C)(=O)=O)ccc12,7.55
3,N#CC1C=Cc2c(ccc3ccccc23)N1C(=O)c1ccccc1 (configuration not stated),13.5
4,c1ccc(-c2ccc(-c3nccc4ccccc34)[nH]2)cc1,6.83
5,O=C(O)Cc1ccc(/N=N/c2c(O)c(C(=O)O)cc3ccccc23)cc1,13.8
6,C(=C\c1ccccn1)/c1ccccn1,-13.05
7,Oc1ccccc1-n1c(-c2ccccc2)ccc1-c1ccccc1,17.11
8,C=CCOc1ccnc(-c2ccccc2)n1,2.21
9,N#C/C(=C\c1ccc[nH]1)C(=O)c1ccccc1,11.69
10,Cn1cnc([N+](=O)[O-])c1Sc1n[nH]c(N)n1,2.77
11,COc1ccc2nc3cc(Cl)ccc3c(C#N)c2c1,8.17
12,Nc1n[nH]c(-c2ccccc2)n1,24.19
13,Clc1nc(Oc2ccccc2)nc(-c2cn(-c3ccccc3)c3ccccc23)n1,25.42
14,c1ccc(-c2nnc(-c3ccccn3)s2)nc1,10.55
15,Cc1ccc(/N=N/c2c(N)nn(-c3ccccc3)c2N)cc1,6.54
16,Cc1cc(NC(=O)c2ccccc2)c(Cl)cc1N,8.57
17,O=C(c1ccc(O)cc1)c1ccc(C(=O)c2ccc(O)cc2)cc1,21.13
18,Cc1cccc2c1c1ccc3c(c1n2C)C(=O)C=CC3=O,11.97
19,CCNC(=O)Oc1cccnc1O,18.32
20,COC(=O)C1=C(C(=O)OC)[C@@H]2CCC[C@H]1[C@H]1[C@@H]2N=NN1c1ccccc1,15.52
21,CCN(CC)CCN1C(=O)c2cccc3cc(N)cc(c23)C1=O,31.06
22,Nc1c(Cl)cc(S(N)(=O)=O)cc1S(N)(=O)=O,5.19
23,COc1c(NC(C)=O)c2ccccc2c2ccccc12,12.04

row,SMILES,Inhibition [%]
1,c1ccc2c(c1)[nH]c1c3ccccc3sc21,-1.82
2,COc1cc(/N=N/c2ccccc2C(=O)O)ccc1O,6.71
3,NC(=O)Oc1cccc(OC(N)=O)c1,3.09
4,CC(C)(C)N1CC(OC(N)=O)C1,11.94
5,CCCOc1ccc(-c2nc(-c3ccc([N+](=O)[O-])cc3)cs2)cc1,20.27
6,O=[N+]([O-])c1ccccc1CSc1nc(O)c2nc[nH]c2n1,20.96
7,Cc1ccc(C)c(C(=O)CCC(=O)O)c1,5.34
8,O=C1c2ccccc2C(=Cc2cccnc2)c2ccccc21,23.29
9,Cc1cc(N(C)C)ccc1/N=N/c1ccc2ncccc2c1,6.87
10,O=S1(=O)CSCS(=O)(=O)C1,-32.43
11,COc1c(NC=O)c2c(c([N+](=O)[O-])c1OC)C(=O)OC2,7.87
12,COc1ccc(OCC(O)CN2CCN(c3ccc(Cl)cc3)CC2)cc1 (configuration not stated),30.78
13,Cc1nc2ccc(N)nc2nc1C,22.15
14,Cc1ccc(S(=O)(=O)CCOC(=O)CNC(=O)OCc2ccccc2)cc1,21.58
15,Nc1ccnn1-c1ccccc1,11.96
16,CCCN(CCC)CC(=O)N1CC(=O)Nc2ccccc21,-8.57
17,Oc1cc(-c2ccc(Cl)cc2)nc2ccccc12,4.43
18,COc1ccc(-c2cc3ccccc3[nH]2)cc1,16.23
19,O=c1[nH]c(=S)c2ncn(-c3ccccc3)c2[nH]1,-0.61
20,CCC(C)NC(=O)CC(C)C (configuration not stated),27.39
